Measurements reported in PubChem BioAssay AID1671195 (Yale University, 2021).
The deposit covers about 22,000 reagents; shown is an unselected part. Over the whole deposit, about 1,510 (6.9%) were called active. 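Active includes knockdowns raising or lowering LDL uptake; positive z-scores mean more uptake, negative mean less.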 A number with no mark means an inactive call.

- Assay: 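Genes whose knockdown alters LDL uptake in liver cancer cells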 (primary screen)
- Cell system: human Huh7 hepatoma cells
- Knock-down reagent: siRNA pool against human genes, 18 nM
- Duration: about 2 to 2.5 days of knockdown, then 8 h LDL uptake
- Treatment: DiI-labelled LDL at 30 µg/ml for 8 h, in lipoprotein-deficient serum medium
- Detection: 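Fluorescent LDL signal imaged in cells, scaled to the plate median, robust z-score for each replicate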
- Direction: robust z-score: higher = more LDL uptake after knockdown
- Rule for the call: 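Active when two or more replicates show a robust z-score above 2 or below -2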

target	robust z-score, replicate 1	robust z-score, replicate 2	robust z-score, replicate 3
GPI (GeneID 2821)	2.96 (active)	3.62	2.61
LINC01973 (GeneID 400624)	-0.674	-0.912	-0.628
APCDD1L (GeneID 164284)	2.73 (active)	2.9	2.17
USP5 (GeneID 8078)	-1.39	-0.539	-1.17
CHST3 (GeneID 9469)	-0.737	-1.57	-1.71
LOC389264 (retired record) (GeneID 389264)	-0.295	-0.158	-0.28
ARL17A (GeneID 51326)	1.88	0.56	0.652
TREML4 (GeneID 285852)	-0.515	-0.218	-0.13
NTAQ1 (GeneID 55093)	-1.17	-2.08	-1.12
LINC00242 (GeneID 401288)	-1.12	-1.05	-1.24
NKAP (GeneID 79576)	0.0309	-0.131	-0.0749
AQP10 (GeneID 89872)	1.07	0.519	0.528
ELOVL5 (GeneID 60481)	0.341	-0.523	-0.539
LOC402072 (retired record) (GeneID 402072)	1.31	1.82	1.43
EEF2 (GeneID 1938)	-0.716	-0.522	-0.579
UBN2 (GeneID 254048)	-0.279	0.064	-0.4
LOC390855 (retired record) (GeneID 390855)	-0.819	-0.38	-0.523
MUC16 (GeneID 94025)	-0.377	-1.62	-1.15
IGF1R (GeneID 3480)	0.975	0.142	1.79
RNF169 (GeneID 254225)	-0.256	-0.0368	-0.14
LINC02481 (GeneID 339988)	-0.0891	-0.374	-0.208
CNTD1 (GeneID 124817)	0.307	-0.4	-0.501
ATP5MJ (GeneID 9556)	0.747	1.65	0.853
PRDM11 (GeneID 56981)	5.43	0.924	-0.132
ARCN1 (GeneID 372)	-1.46	-1.29	-1.9
MRPS7 (GeneID 51081)	0.531	-0.0642	-2.06
KCNC3 (GeneID 3748)	-1.06	-0.733	-1.12
PLEKHA3 (GeneID 65977)	0.0832	0.491	-0.0322
OR13H1 (GeneID 347468)	-0.657	-0.883	-0.689
ERRFI1 (GeneID 54206)	-1.19	-1.45	-1.07
LRRC8B (GeneID 23507)	0.291	-0.327	0.788
ALAS1 (GeneID 211)	-0.407	-0.116	-0.44
MBD3L2 (GeneID 125997)	0.131	0.155	-0.661
ZNF22-AS1 (GeneID 220979)	0.493	0.455	0.537
ELL3 (GeneID 80237)	0.903	0.921	0.856
SV2C (GeneID 22987)	-1.02	-0.855	-0.965
LINC00207 (GeneID 388910)	1.02	1.33	1.42
C3orf38 (GeneID 285237)	-0.718	-0.442	-0.59
GJB2 (GeneID 2706)	-1.61	-1.45	-1.27
C20orf141 (GeneID 128653)	-0.931	-0.976	-1.2
TEX35 (GeneID 84066)	0.495	-0.203	1.88
ZNF137P (GeneID 7696)	1.52	0.954	0.307
CYB5R1 (GeneID 51706)	-0.176	0.267	0.00288
HSPBP1 (GeneID 23640)	-0.2	-0.714	-0.417
DDX11 (GeneID 1663)	-1.26	-1.22	-0.757
LINC01879 (GeneID 400661)	0.113	-0.393	-0.224
NUDT7 (GeneID 283927)	2.03 (active)	2.41	1.55
BUB1 (GeneID 699)	-0.333	-1.07	-0.421
PNMA8B (GeneID 57469)	1.41	1.95	2.18
KLK12 (GeneID 43849)	0.788	1.24	1.15
PLEKHA6 (GeneID 22874)	0.454	-0.198	1.09
PIK3R5 (GeneID 23533)	1.68	0.0432	0.0024
TM9SF4 (GeneID 9777)	-0.475	0.0726	-0.261
ITIH2 (GeneID 3698)	0.334	-0.617	0.0249
C4orf50 (GeneID 389197)	0.267	0.646	0.761
CIB2 (GeneID 10518)	-0.162	0.0654	-0.155
LINC00965 (GeneID 349196)	2.66 (active)	2.32	2.49
KRT8 (GeneID 3856)	-0.23	0.588	0.25
MESTP4 (GeneID 131572)	-0.398	-1.41	-0.344
OR5J2 (GeneID 282775)	0.247	0.422	0.442
MAPK11 (GeneID 5600)	-0.0914	0.309	0.208
BRD8 (GeneID 10902)	-1.12	-1.15	-1.15
FAM53B (GeneID 9679)	0.949	-0.957	-0.073
SRM (GeneID 6723)	0.188	0.748	0.465
LOC284931 (retired record) (GeneID 284931)	2.28 (active)	2.56	2.33
LINC00161 (GeneID 118421)	-1.45	-1.38	-0.841
TNFSF8 (GeneID 944)	2.63	0.31	1.95
TMEM69 (GeneID 51249)	3.69 (active)	2.12	-0.742
